Measurements as given in US20040086495A1, “Method for the treatment of arteriosclerosis” (EUCRO EUROPEAN CONTRACT RESEARCH GMBH & CO. KG, priority 2002, published 2004).
Some results were stated once for a whole list of compounds, not compound by compound.

Target: T1, PP2C (Bos taurus, UniProt O62830)
T1 construct: made in house; host or cells: E. coli
T1 sequence (O62830 1-484): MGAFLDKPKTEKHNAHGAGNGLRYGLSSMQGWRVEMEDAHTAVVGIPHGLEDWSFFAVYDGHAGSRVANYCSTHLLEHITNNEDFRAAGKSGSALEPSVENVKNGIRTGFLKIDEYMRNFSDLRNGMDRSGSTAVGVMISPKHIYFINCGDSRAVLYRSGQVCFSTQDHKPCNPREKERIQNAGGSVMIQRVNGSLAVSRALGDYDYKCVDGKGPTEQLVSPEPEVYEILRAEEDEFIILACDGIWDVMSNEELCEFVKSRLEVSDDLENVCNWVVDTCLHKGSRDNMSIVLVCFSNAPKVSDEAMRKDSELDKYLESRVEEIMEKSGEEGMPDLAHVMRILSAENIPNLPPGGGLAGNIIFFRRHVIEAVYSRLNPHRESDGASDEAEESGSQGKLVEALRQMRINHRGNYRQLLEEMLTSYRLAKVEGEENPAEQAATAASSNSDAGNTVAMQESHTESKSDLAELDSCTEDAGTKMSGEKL
Assay: PP2C activity in the presence of fatty acids ([32P]casein dephosphorylation)
Type: biochemical, bovine
Conditions: PP2C activating fatty acids

Compound	activation of PP2C
gincolic acid	10- to 15 fold
CCCCC/C=C\C/C=C\C/C=C\C/C=C\CCCC(=O)O [arachidonic acid]	10- to 15 fold
